Assay results taken from publication PMC6063507.
Results are given in words; binding and its absence hold for the method and conditions named. Binding seen in cells or lysates may run through a third protein. Here binding means that the protein was enriched with, or labelled near, the bait; the list need not be complete. A no says only that the protein was not detected with the bait.

Amino acid sequences for entries named in this document (tags omitted). Residues count along the entry.
UniProt Q9NPY3, residues 22-652: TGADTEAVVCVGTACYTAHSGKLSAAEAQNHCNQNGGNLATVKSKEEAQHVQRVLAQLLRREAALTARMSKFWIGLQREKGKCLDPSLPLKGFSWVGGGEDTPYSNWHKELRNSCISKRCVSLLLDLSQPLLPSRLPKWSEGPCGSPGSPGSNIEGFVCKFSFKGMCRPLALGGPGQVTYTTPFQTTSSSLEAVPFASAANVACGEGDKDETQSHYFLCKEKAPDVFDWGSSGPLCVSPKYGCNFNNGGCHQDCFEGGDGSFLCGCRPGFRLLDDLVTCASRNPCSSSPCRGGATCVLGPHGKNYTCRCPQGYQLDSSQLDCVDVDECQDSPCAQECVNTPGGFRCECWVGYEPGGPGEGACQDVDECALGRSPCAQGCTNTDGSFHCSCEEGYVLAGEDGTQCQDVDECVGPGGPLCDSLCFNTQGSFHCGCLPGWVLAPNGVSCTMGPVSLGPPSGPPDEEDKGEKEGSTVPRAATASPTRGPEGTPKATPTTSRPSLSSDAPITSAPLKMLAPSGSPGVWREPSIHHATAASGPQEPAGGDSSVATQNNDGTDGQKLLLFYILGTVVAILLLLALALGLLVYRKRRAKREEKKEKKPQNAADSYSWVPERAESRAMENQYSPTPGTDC
UniProt P02751, residues 32-2477: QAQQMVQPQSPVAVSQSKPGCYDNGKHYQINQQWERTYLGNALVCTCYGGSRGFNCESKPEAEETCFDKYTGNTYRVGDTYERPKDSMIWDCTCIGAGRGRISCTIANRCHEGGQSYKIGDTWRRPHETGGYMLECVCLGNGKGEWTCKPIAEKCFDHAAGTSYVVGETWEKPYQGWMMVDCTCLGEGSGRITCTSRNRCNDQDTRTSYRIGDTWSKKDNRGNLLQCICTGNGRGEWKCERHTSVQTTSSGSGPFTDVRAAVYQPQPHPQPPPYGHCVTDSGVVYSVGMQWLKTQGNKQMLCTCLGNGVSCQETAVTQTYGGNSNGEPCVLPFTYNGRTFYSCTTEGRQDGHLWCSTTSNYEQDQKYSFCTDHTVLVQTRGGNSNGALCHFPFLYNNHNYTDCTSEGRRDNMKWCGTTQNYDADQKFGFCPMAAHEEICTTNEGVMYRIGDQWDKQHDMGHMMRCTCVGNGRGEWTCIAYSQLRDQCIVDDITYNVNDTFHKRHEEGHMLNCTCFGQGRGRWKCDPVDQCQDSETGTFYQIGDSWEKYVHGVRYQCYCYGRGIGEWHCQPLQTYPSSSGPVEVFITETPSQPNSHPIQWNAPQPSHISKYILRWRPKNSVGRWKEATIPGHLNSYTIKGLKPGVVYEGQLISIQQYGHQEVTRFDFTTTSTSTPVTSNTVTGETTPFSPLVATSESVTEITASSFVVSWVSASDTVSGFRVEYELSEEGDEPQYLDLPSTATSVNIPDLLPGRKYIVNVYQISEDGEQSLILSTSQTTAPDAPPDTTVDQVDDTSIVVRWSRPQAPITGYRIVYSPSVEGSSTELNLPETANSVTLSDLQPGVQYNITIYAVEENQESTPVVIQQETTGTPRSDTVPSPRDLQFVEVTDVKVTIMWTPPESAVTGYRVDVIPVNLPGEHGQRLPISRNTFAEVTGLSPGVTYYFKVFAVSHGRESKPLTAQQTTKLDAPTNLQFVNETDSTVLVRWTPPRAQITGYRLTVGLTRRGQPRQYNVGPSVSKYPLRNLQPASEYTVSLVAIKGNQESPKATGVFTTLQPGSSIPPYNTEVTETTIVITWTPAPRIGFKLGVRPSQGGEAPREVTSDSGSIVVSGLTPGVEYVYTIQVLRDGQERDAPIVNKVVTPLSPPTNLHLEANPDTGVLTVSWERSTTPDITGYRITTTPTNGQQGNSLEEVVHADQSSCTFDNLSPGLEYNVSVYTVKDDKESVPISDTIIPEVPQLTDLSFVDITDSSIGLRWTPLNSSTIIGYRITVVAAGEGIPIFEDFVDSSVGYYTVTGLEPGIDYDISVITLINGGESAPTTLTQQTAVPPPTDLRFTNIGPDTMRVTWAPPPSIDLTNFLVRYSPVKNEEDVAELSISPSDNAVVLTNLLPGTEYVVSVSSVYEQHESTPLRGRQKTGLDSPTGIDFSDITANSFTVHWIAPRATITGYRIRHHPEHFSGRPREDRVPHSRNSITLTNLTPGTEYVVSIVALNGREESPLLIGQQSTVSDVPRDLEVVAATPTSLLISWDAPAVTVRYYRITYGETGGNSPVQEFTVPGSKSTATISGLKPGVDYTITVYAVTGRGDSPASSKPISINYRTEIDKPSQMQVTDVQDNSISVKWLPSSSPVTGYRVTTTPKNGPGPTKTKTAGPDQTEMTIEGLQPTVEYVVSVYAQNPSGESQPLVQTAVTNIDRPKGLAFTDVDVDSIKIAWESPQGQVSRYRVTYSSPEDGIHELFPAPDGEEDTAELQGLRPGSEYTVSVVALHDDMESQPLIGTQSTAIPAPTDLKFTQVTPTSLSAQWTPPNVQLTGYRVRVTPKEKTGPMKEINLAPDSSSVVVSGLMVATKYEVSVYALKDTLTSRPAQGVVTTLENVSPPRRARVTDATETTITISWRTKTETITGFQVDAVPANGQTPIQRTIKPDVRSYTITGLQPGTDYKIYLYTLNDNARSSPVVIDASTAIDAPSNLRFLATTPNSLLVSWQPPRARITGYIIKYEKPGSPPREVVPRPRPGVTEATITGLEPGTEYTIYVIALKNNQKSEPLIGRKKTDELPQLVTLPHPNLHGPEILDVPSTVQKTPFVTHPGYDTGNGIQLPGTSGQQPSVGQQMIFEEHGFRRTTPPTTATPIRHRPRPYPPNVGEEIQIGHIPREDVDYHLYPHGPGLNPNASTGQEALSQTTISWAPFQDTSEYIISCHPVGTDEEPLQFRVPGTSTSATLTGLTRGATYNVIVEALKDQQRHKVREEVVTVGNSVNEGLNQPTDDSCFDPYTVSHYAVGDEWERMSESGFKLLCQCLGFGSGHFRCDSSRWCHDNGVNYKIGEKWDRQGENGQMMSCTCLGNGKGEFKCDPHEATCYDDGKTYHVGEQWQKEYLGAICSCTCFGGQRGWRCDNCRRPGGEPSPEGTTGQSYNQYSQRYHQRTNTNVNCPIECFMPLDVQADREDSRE
UniProt Q9H8L6, residues 23-949: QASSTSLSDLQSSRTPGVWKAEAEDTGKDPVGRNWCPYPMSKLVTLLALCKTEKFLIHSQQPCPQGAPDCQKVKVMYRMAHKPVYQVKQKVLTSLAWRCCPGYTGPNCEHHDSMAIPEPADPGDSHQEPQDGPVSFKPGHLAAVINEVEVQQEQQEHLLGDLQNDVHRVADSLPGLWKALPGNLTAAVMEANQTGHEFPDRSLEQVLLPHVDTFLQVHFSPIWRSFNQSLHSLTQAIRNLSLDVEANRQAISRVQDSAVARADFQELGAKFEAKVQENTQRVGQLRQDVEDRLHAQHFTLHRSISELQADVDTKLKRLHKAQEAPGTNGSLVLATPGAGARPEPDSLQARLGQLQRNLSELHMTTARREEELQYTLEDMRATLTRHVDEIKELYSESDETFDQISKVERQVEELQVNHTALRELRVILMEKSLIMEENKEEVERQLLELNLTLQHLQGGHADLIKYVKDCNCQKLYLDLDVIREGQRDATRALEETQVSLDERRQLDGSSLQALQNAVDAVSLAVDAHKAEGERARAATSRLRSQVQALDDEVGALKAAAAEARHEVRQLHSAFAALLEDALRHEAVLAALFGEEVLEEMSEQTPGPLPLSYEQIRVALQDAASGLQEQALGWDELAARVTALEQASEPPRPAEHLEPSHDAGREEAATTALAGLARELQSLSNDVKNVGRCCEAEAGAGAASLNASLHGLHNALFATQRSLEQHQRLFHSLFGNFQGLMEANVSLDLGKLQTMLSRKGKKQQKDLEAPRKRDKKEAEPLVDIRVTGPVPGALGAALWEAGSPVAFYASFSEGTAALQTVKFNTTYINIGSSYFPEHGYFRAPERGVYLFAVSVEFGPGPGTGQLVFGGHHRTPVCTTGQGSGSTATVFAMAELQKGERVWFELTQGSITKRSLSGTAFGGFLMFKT

Target: CD93 (human (endogenous in HDMECs and HDBECs)) (UniProt Q9NPY3)
Assay: affinity purification with mass spectrometry; total protein extract of subconfluent HDMECs immunoprecipitated with mouse anti-human CD93 antibody (MBL D198-3) or control mouse IgG, Pierce co-IP kit; LC-Orbitrap MS/MS; 5 independent experiments

| binding | Substance |
| --- | --- |
| no binding | fibronectin (from UniProt P02751 32-2477) |
| binds | multimerin-2 (from UniProt Q9H8L6 23-949) |
